{"source": "PubChem BioAssay AID1259308 | NCATS | 2017", "purpose": "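Knock-downs that increase output of a recombinant reporter protein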 (primary screen)", "cell system": "human HEK293 embryonic kidney cells stably expressing firefly luciferase (HEK-CMV-Luc2-Hygro)", "reagent": "single siRNA against human genes, 0.8 pmol siRNA per well", "duration": "72 h", "detection": "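Luciferase light (ONE-Glo) measured on one replicate plate set and viability (CellTiter-Glo) on the other, scaled to a negative control siRNA, with robust z-scores and luciferase per cell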", "direction": "total luciferase, z-score: higher = more reporter protein produced", "hit rule": "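Active when the median/MAD z-score for overall luciferase is greater than 3; a gene was taken forward for validation with new siRNAs if at least two of its three siRNAs passed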", "calls": "active = raised luciferase; inactive = no rise", "note": "This is an unselected part of about 59,000 deposited reagents. In the full data, about 1,510 (2.6%) got an active call. 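Calls use total luciferase alone and ignore viability, so some active siRNAs may act by altering cell number.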 Unmarked entries are inactive. Reagents against one gene are numbered here. Further read-outs or replicates are left out here."}
{"target": "SLC71A1", "reagent no.": 1, "total luciferase, z-score": 0.0116}
{"target": "SLC71A1", "reagent no.": 2, "total luciferase, z-score": -0.255}
{"target": "SLC71A1", "reagent no.": 3, "total luciferase, z-score": -0.3}
{"target": "TOPBP1", "reagent no.": 1, "total luciferase, z-score": 2.05}
{"target": "TOPBP1", "reagent no.": 2, "total luciferase, z-score": -0.923}
{"target": "TOPBP1", "reagent no.": 3, "total luciferase, z-score": -0.25}
{"target": "TRAT1", "reagent no.": 1, "total luciferase, z-score": -0.452}
{"target": "TRAT1", "reagent no.": 2, "total luciferase, z-score": "3.53 (active)"}
{"target": "TRAT1", "reagent no.": 3, "total luciferase, z-score": -0.786}
{"target": "UQCC4", "reagent no.": 1, "total luciferase, z-score": 0.539}
{"target": "UQCC4", "reagent no.": 2, "total luciferase, z-score": -0.177}
{"target": "UQCC4", "reagent no.": 3, "total luciferase, z-score": -0.0736}
{"target": "ANGPT2", "reagent no.": 1, "total luciferase, z-score": -0.201}
{"target": "ANGPT2", "reagent no.": 2, "total luciferase, z-score": -0.928}
{"target": "ANGPT2", "reagent no.": 3, "total luciferase, z-score": 0.455}
{"target": "SLC41A1", "reagent no.": 1, "total luciferase, z-score": "3 (active)"}
{"target": "SLC41A1", "reagent no.": 2, "total luciferase, z-score": 0.28}
{"target": "SLC41A1", "reagent no.": 3, "total luciferase, z-score": -0.137}
{"target": "MSI2", "reagent no.": 1, "total luciferase, z-score": -1.26}
{"target": "MSI2", "reagent no.": 2, "total luciferase, z-score": 2.79}
{"target": "MSI2", "reagent no.": 3, "total luciferase, z-score": -0.749}

2 entries from above, ordered by “total luciferase, z-score”, descending:
{"target": "SLC41A1", "reagent no.": 1, "total luciferase, z-score": "3 (active)"}
{"target": "ANGPT2", "reagent no.": 3, "total luciferase, z-score": 0.455}
